Test results: patent US9655877B2, “Therapeutic methods for treating inflammation and immune system disorders” (priority 2009, dated 2017)
Some entries share one result that the patent states for a list of compounds.

System: nitrite production in BV-2 cells
Assay: LPS-induced nitrite (nitric oxide) production in BV-2 cells, Griess reagent
Format: cell-based, murine
Details: 100 ng/ml LPS, 18 hours
Method: Nitrite levels in the culture media were determined using Griess reagent under manufacturer's instructions (Sigma Aldrich, St. Louis, Mo.). Fresh culture media were used as blanks and the nitrite levels were determined by using a standard sodium nitrite curve.
The effect of each extract on nitric oxide production is evaluated according to the procedures illustrated as follows. Briefly, murine microglia cell line BV-2 is maintained in Dulbecco's modified Eagle's minimum essential medium (DMEM) supplemented with 10% FBS and 1% penicillin and streptomycin (Invitrogen Life Technologies, Carlsbad, Calif.) at 37° C. in a humidified atmosphere with 5% CO2 in warm air.
0.1 M cells/ml BV-2 cells are seeded in 24-well plates (0.5 ml in each well). […] The nitric oxide level is measured using the Griess reagent according to standard manufacturer's instructions (Sigma Aldrich, St. Louis, Mo.), and assessed using the standard sodium nitrite curve.
The effect of senkyunolide A (Sen A) and Z-ligustilide (Z-Lig) at various concentrations on LPS-induced nitrite production is further evaluated in this Example. […] The nitric oxide level is measured using the Griess reagent according to standard manufacturer's instructions (Sigma Aldrich, St. Louis, Mo.), and evaluated using the standard sodium nitrite curve.

| Compound | concentration that significantly inhibits nitrite production |
| --- | --- |
| CCC/C=C1\OC(=O)C2=C1CCC=C2 [Z-ligustilide] | above 5 μg/ml |
| CCCC[C@H]1OC(=O)C2=C1CCC=C2 [senkyunolide A] | above 5 μg/ml |
